Source: patent US20230330222A1 (ASCENDO BIOTECHNOLOGY, published 2023)
No constants are given. Whether binding was seen depends on the method and setting. Some binding calls cover weakened binding; strength is not graded here.

By UniProt entry, the sequences of proteins in these tests, tags left out. Where a name states a change or a piece, a line headed by the entry shows the natural chain unless it says otherwise. Residues count along the entry.
UniProt O00206, residues 24-631: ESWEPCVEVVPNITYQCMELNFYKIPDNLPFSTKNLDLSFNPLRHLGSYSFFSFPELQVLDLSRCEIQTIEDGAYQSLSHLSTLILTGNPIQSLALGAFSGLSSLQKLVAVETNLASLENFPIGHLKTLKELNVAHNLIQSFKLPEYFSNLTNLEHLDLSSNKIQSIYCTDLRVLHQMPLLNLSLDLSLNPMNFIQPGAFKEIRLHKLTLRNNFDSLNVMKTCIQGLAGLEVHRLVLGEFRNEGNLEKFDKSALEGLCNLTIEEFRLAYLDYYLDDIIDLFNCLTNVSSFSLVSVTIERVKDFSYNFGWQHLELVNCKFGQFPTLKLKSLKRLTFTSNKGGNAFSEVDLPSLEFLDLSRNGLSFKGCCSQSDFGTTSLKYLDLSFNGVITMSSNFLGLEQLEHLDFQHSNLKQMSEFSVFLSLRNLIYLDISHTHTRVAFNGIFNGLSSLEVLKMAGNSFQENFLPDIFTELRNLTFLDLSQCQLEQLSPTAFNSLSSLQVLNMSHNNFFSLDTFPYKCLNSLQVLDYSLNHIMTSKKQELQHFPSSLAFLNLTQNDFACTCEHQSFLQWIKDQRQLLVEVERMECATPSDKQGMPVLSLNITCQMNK
UniProt Q9Y6Y9: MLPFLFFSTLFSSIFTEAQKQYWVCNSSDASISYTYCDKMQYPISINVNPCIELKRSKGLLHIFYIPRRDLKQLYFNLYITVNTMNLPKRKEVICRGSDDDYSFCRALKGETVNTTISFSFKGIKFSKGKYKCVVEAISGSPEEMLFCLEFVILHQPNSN

Tests used:
[1] = target: T1, recombinant TLR4 (toll-like receptor 4) (human, UniProt O00206 24-631, limits assumed); experiment: solid phase binding assay, TLR4 coated
T1 construct: also called hTLR4

[2] = target: T1, recombinant TLR4 (toll-like receptor 4); experiment: solid phase binding assay, TLR4 coated at 5 ug/ml, anti-TREML1 detection, OD450
[3] = target: T2, TLR4/MD2 expressed by THP1/XBlue/MD2/CD14 cells (human) (UniProt O00206+Q9Y6Y9); experiment: flow cytometry on THP1/XBlue/MD2/CD14 cells, TREML1 ECD 10 ug/ml, AF647-anti-TREML1 detection
[4] = target: T2, TLR4/MD2 expressed by THP1/XBlue/MD2/CD14 cells (human); experiment: flow cytometry on THP1/XBlue/MD2/CD14 cells

binding [1]: binds
binding [2]: binds
binding [3]: binds
binding [4]: binds
B1: recombinant TREML1 ECD (human TREM-like transcript-1 extracellular domain) (ligand)
chain: QGIVGSLPEVLQAPVGSSILVQCHYRLQDVKAQKVWCRFLPEGCQPLVSSAVDRRAPAGRRTFLTDLGGGLLQVEMVTLQEEDAGEYGCMVDGARGPQILHRVSLNILPPEEEEETHKIGSLAENAFSDPAGSANPLEPSQDEKSIP
notes: Expressed in E. coli from pET30-TREML1 and purified on Ni-NTA; also called hTREML1; not shown: N-terminal polyhistidine tag from pET30
